Data source: PubChem BioAssay AID1259289 (Sanger Institute, 2017)

Assay: 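Find kinases whose loss adds to targeted drugs in killing bowel cancer cells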 (primary screen)
Cell system: human LS513 colorectal cancer cells
Knock-down reagent: siRNA pool against human genes
Treatment: anchor drug BYL719 at 1 µM, cetuximab at 5 µg/ml or trametinib at 10 nM, or DMSO vehicle alone; exposure time not given
Read-out: 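Cell survival as a fraction of the non-targeting pool, replicate means; robust z-score for silencing alone under DMSO; synergy score for each of BYL719, cetuximab and trametinib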
Scale: robust z-score, siRNA alone (DMSO): higher = more viable cells; strongly negative means essential
Rule for the call: 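Called essential when silencing alone under DMSO gives a robust z-score below -3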
Meaning of the calls: active = essential (knock-down alone); inactive = not essential
The whole screen tested 794 reagents; this is an unselected part. In the full data, 16 (2%) were called active. 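Active marks cell loss from silencing alone; drug synergy shows only in the synergy scores, not the calls.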 A number with no mark means an inactive call. Further read-outs or replicates are left out here. Reagent sequences are not shown. The record does not give: the amount of reagent, the time to read-out.

CSNK1A1L (GeneID 122011) gave robust z-score, siRNA alone (DMSO) = 0.561. Against ACVRL1 (GeneID 94), the values are robust z-score, siRNA alone (DMSO) = 0.561. Silencing of JAK2 (GeneID 3717) came out at: robust z-score, siRNA alone (DMSO) = 0.561. After knock-down of CMPK1 (GeneID 51727), the screen gave robust z-score, siRNA alone (DMSO) = 0.561. With knock-down of BTK (GeneID 695), the screen gave robust z-score, siRNA alone (DMSO) = 0.561. For JAK3 (GeneID 3718), the values are robust z-score, siRNA alone (DMSO) = 0.561.

IKBKB (GeneID 3551) scored robust z-score, siRNA alone (DMSO) = 0.561. For PIK3R1 (GeneID 5295), the entry reads robust z-score, siRNA alone (DMSO) = 0.561. Against CDC42BPB (GeneID 9578) the deposit lists robust z-score, siRNA alone (DMSO) = 0.561. With knock-down of TNK2 (GeneID 10188), the record shows robust z-score, siRNA alone (DMSO) = 0.561. For GSK3B (GeneID 2932), the entry reads robust z-score, siRNA alone (DMSO) = 0.561. WIPF1 (GeneID 7456) scored robust z-score, siRNA alone (DMSO) = -0.537.

EPHA2 (GeneID 1969) scored robust z-score, siRNA alone (DMSO) = 0.561. Knock-down of IPMK (GeneID 253430) gave: robust z-score, siRNA alone (DMSO) = 0.561. PANK3 (GeneID 79646) gave robust z-score, siRNA alone (DMSO) = 0.561. Against ARAF (GeneID 369) the deposit lists robust z-score, siRNA alone (DMSO) = 0.561. MAPK1 (GeneID 5594) showed robust z-score, siRNA alone (DMSO) = -1.29. ZC3H11A (GeneID 9877) showed robust z-score, siRNA alone (DMSO) = 0.561.

After knock-down of MOK (GeneID 5891), the record shows robust z-score, siRNA alone (DMSO) = 0.561. With knock-down of EFNA4 (GeneID 1945) the results were robust z-score, siRNA alone (DMSO) = 0.561. For PDGFRA (GeneID 5156), the values are robust z-score, siRNA alone (DMSO) = 0.561. After knock-down of TCF12 (GeneID 6938), the record shows robust z-score, siRNA alone (DMSO) = 0.561. With knock-down of MYLK (GeneID 4638), the record shows robust z-score, siRNA alone (DMSO) = -2.26. Silencing of PFKFB4 (GeneID 5210) gave: robust z-score, siRNA alone (DMSO) = 0.561.

After knock-down of KSR1 (GeneID 8844), the screen gave robust z-score, siRNA alone (DMSO) = -3.71 (active). For PRP4K (GeneID 8899), the entry reads robust z-score, siRNA alone (DMSO) = -0.154. Silencing of SF3B1 (GeneID 23451) gave: robust z-score, siRNA alone (DMSO) = -4.98 (active). ADCK1 (GeneID 57143) gave robust z-score, siRNA alone (DMSO) = 0.561. CAMKK2 (GeneID 10645) scored robust z-score, siRNA alone (DMSO) = -0.0484. Depletion of DSTYK (GeneID 25778) resulted in: robust z-score, siRNA alone (DMSO) = 0.561.

Against PRKAR2B (GeneID 5577), the entry reads robust z-score, siRNA alone (DMSO) = -2.37. Silencing of CHUK (GeneID 1147) came out at: robust z-score, siRNA alone (DMSO) = 0.561. With knock-down of TK2 (GeneID 7084), the screen gave robust z-score, siRNA alone (DMSO) = 0.561. Against TSKS (GeneID 60385), the entry reads robust z-score, siRNA alone (DMSO) = 0.561. Against GUCY2EP (GeneID 390226), the entry reads robust z-score, siRNA alone (DMSO) = 0.561. Against CAMK2B (GeneID 816), the entry reads robust z-score, siRNA alone (DMSO) = 0.561.

An excerpt of the results above, for reference:
ACVRL1 (GeneID 94) — robust z-score, siRNA alone (DMSO): 0.561
JAK2 (GeneID 3717) — robust z-score, siRNA alone (DMSO): 0.561
